Source: PubChem BioAssay AID652272 (Drosophila RNAi Screening Center, 2013)

Aim: 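Genes whose knock-down decreases or increases Hedgehog reporter output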 (primary screen)
Cell system: Drosophila clone 8 (Cl8) cells
Reagent: long dsRNA against Drosophila genes
Detection: 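Plate reader light from a firefly reporter under a ptc promoter fragment that responds to Hedgehog, with Renilla light as transfection reference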
Direction: firefly Hh reporter signal: higher = more ptc reporter light; Renilla reference signal: higher = more Renilla control light
Active means: 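Hit when the z-score averaged over two replicates is under -2 or over +3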
Calls: active = hit: reporter lowered or raised; inactive = not a hit
In all, the deposit lists about 21,000 reagents; below is a random part of those that have a named target and a result. Of all reagents, 503 (2.4%) got an active call. 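Raw plate light values, not normalised; calls rest on replicate z-scores that were not deposited; hits include reporter decreases as well as increases.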 Not stated in the record: the amount of reagent, the time to read-out.

{"target gene": "dmt", "DRSC id": "DRSC16932", "firefly Hh reporter signal, replicate 1": 63527, "firefly Hh reporter signal, replicate 2": 1.21e5, "Renilla reference signal, replicate 1": 2312, "Renilla reference signal, replicate 2": 3548, "activity call": "inactive"}
{"target gene": "CG8160", "DRSC id": "DRSC07086", "firefly Hh reporter signal, replicate 1": 1.92e5, "firefly Hh reporter signal, replicate 2": 8.51e5, "firefly Hh reporter signal, replicate 3": 1.12e5, "Renilla reference signal, replicate 1": 4976, "Renilla reference signal, replicate 2": 49945, "activity call": "inactive"}
{"target gene": "CG6763", "DRSC id": "DRSC16110", "firefly Hh reporter signal, replicate 1": 5.43e5, "firefly Hh reporter signal, replicate 2": 75868, "Renilla reference signal, replicate 1": 24757, "Renilla reference signal, replicate 2": 2475, "activity call": "inactive"}
{"target gene": "Mst84B", "DRSC id": "DRSC12579", "firefly Hh reporter signal, replicate 1": 1.21e5, "firefly Hh reporter signal, replicate 2": 1.71e5, "Renilla reference signal, replicate 1": 5188, "Renilla reference signal, replicate 2": 5168, "activity call": "inactive"}
{"target gene": "CG14823", "DRSC id": "DRSC10194", "firefly Hh reporter signal, replicate 1": 82404, "firefly Hh reporter signal, replicate 2": 71814, "Renilla reference signal, replicate 1": 3473, "Renilla reference signal, replicate 2": 3089, "activity call": "inactive"}
{"target gene": "dom", "DRSC id": "DRSC04558", "firefly Hh reporter signal, replicate 1": 79912, "firefly Hh reporter signal, replicate 2": 54617, "Renilla reference signal, replicate 1": 2435, "Renilla reference signal, replicate 2": 1814, "activity call": "inactive"}
{"target gene": "dom", "DRSC id": "DRSC04559", "firefly Hh reporter signal, replicate 1": 49136, "firefly Hh reporter signal, replicate 2": 42816, "Renilla reference signal, replicate 1": 1991, "Renilla reference signal, replicate 2": 4787, "activity call": "inactive"}
{"target gene": "fred", "DRSC id": "DRSC00349", "firefly Hh reporter signal, replicate 1": 1.61e5, "firefly Hh reporter signal, replicate 2": 69089, "Renilla reference signal, replicate 1": 4393, "Renilla reference signal, replicate 2": 6673, "activity call": "inactive"}
{"target gene": "fred", "DRSC id": "DRSC00599", "firefly Hh reporter signal, replicate 1": 1.82e5, "firefly Hh reporter signal, replicate 2": 5.31e5, "firefly Hh reporter signal, replicate 3": 81232, "Renilla reference signal, replicate 1": 5014, "Renilla reference signal, replicate 2": 31115, "activity call": "inactive"}
{"target gene": "fred", "DRSC id": "DRSC00601", "firefly Hh reporter signal, replicate 1": 82816, "firefly Hh reporter signal, replicate 2": 50807, "Renilla reference signal, replicate 1": 2086, "Renilla reference signal, replicate 2": 4876, "activity call": "inactive"}
{"target gene": "fred", "DRSC id": "DRSC00602", "firefly Hh reporter signal, replicate 1": 95776, "firefly Hh reporter signal, replicate 2": 70758, "Renilla reference signal, replicate 1": 2848, "Renilla reference signal, replicate 2": 6274, "activity call": "inactive"}
{"target gene": "CG7362", "DRSC id": "DRSC16236", "firefly Hh reporter signal, replicate 1": 1.64e5, "firefly Hh reporter signal, replicate 2": 1.37e5, "Renilla reference signal, replicate 1": 5803, "Renilla reference signal, replicate 2": 3762, "activity call": "inactive"}
{"target gene": "CG11262", "DRSC id": "DRSC09831", "firefly Hh reporter signal, replicate 1": 30816, "firefly Hh reporter signal, replicate 2": 29261, "firefly Hh reporter signal, replicate 3": 46411, "Renilla reference signal, replicate 1": 2986, "Renilla reference signal, replicate 2": 3232, "activity call": "inactive"}
{"target gene": "CG4151", "DRSC id": "DRSC18351", "firefly Hh reporter signal, replicate 1": 95104, "firefly Hh reporter signal, replicate 2": 1.65e5, "Renilla reference signal, replicate 1": 3237, "Renilla reference signal, replicate 2": 6119, "activity call": "inactive"}

Records listed so far whose gene name starts with F or f (4):
{"target gene": "fred", "DRSC id": "DRSC00349", "firefly Hh reporter signal, replicate 1": 1.61e5, "firefly Hh reporter signal, replicate 2": 69089, "Renilla reference signal, replicate 1": 4393, "Renilla reference signal, replicate 2": 6673, "activity call": "inactive"}
{"target gene": "fred", "DRSC id": "DRSC00599", "firefly Hh reporter signal, replicate 1": 1.82e5, "firefly Hh reporter signal, replicate 2": 5.31e5, "firefly Hh reporter signal, replicate 3": 81232, "Renilla reference signal, replicate 1": 5014, "Renilla reference signal, replicate 2": 31115, "activity call": "inactive"}
{"target gene": "fred", "DRSC id": "DRSC00601", "firefly Hh reporter signal, replicate 1": 82816, "firefly Hh reporter signal, replicate 2": 50807, "Renilla reference signal, replicate 1": 2086, "Renilla reference signal, replicate 2": 4876, "activity call": "inactive"}
{"target gene": "fred", "DRSC id": "DRSC00602", "firefly Hh reporter signal, replicate 1": 95776, "firefly Hh reporter signal, replicate 2": 70758, "Renilla reference signal, replicate 1": 2848, "Renilla reference signal, replicate 2": 6274, "activity call": "inactive"}
